Measurements reported in PubChem BioAssay AID1224830 (NIAID, 2016)

Assay: 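Genes whose knock-down alters the TNF-alpha reporter response to LPS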 (primary screen)
System: human THP-1 monocytic leukaemia cells, TNF dual-luciferase reporter clone, PMA-differentiated to macrophage-like cells
Knock-down reagent: siRNA pool against human genes, 50 nM
Time to read-out: LPS for 4 h, given about 3 days after siRNA transfection
Conditions: bacterial LPS (TLR4 ligand), 10 ng/ml
Measurement: 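TNF firefly reporter luminescence divided by renilla, normalised to the plate median, then turned into a robust z-score for each replicate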
Direction: TNF reporter robust z-score: higher = stronger TNF reporter response to LPS
Call rule: 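Each well counts as active if its z-score is over 2.8 or under -1.5; controls are left without a call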
In all, the deposit lists about 18,000 reagents; below is a random part of them. Over the whole deposit, about 2,900 (16%) got an active call. 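Calls are made per well; low scores hint the gene aids the LPS response, high scores that it dampens it.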 Repeated entries: four replicate wells of each siRNA pool.

For ZPLD1 the deposit lists TNF reporter robust z-score -0.34; inactive.
ZPLD1 gave TNF reporter robust z-score 0.09; inactive.
With knock-down of ZPLD1 the results were TNF reporter robust z-score -0.73; inactive.
With knock-down of ZPLD1 the results were TNF reporter robust z-score 0.34; inactive.
Against CD5, the values are TNF reporter robust z-score -0.77; inactive.
After knock-down of CD5, the screen gave TNF reporter robust z-score 0.06; inactive.
CD5 gave TNF reporter robust z-score 0.74; inactive.
Against CD5 the deposit lists TNF reporter robust z-score 1.71; inactive.
H2BC21 scored TNF reporter robust z-score -0.57; inactive.
After knock-down of H2BC21, the screen gave TNF reporter robust z-score -1.04; inactive.
For H2BC21 the deposit lists TNF reporter robust z-score -0.28; inactive.
PAQR3 showed TNF reporter robust z-score 0.84; inactive.
Knock-down of PAQR3 came out at: TNF reporter robust z-score 1.93; inactive.
Silencing of PAQR3 came out at: TNF reporter robust z-score 0.56; inactive.
For PAQR3, the values are TNF reporter robust z-score 1.9; inactive.
Against PPM1M, the values are TNF reporter robust z-score -1.24; inactive.
Depletion of PPM1M came out at: TNF reporter robust z-score -1.13; inactive.
For PPM1M the deposit lists TNF reporter robust z-score -1.84; active.
Against BRI3BP, the entry reads TNF reporter robust z-score 3.86; active.
BRI3BP scored TNF reporter robust z-score 4.83; active.
With knock-down of BRI3BP, the screen gave TNF reporter robust z-score 3.76; active.
Silencing of BRI3BP resulted in: TNF reporter robust z-score 3.65; active.
Against RAP2B the deposit lists TNF reporter robust z-score -1.56; active.
For RAP2B, the values are TNF reporter robust z-score -1.15; inactive.
RAP2B showed TNF reporter robust z-score -1.83; active.
RAP2B showed TNF reporter robust z-score -1; inactive.
After knock-down of ACVR2A, the screen gave TNF reporter robust z-score -0.91; inactive.
Against ACVR2A, the values are TNF reporter robust z-score 0.13; inactive.
Against ACVR2A, the entry reads TNF reporter robust z-score -1.03; inactive.
After knock-down of ACVR2A the results were TNF reporter robust z-score 0.6; inactive.
With knock-down of SLC2A12, the record shows TNF reporter robust z-score -1.34; inactive.
For SLC2A12, the values are TNF reporter robust z-score -0.26; inactive.
For SLC2A12, the values are TNF reporter robust z-score -0.61; inactive.
With knock-down of SLC2A12, the screen gave TNF reporter robust z-score -0.46; inactive.
For OR2T33, the values are TNF reporter robust z-score 0.5; inactive.
With knock-down of OR2T33, the screen gave TNF reporter robust z-score 3.87; active.
Knock-down of OR2T33 came out at: TNF reporter robust z-score 0.34; inactive.
After knock-down of OR2T33, the screen gave TNF reporter robust z-score -0.12; inactive.
Against ZNF789, the entry reads TNF reporter robust z-score -0.28; inactive.
For ZNF789 the deposit lists TNF reporter robust z-score -0.06; inactive.
Depletion of ZNF789 came out at: TNF reporter robust z-score 0.44; inactive.
Depletion of ZNF789 resulted in: TNF reporter robust z-score -1.36; inactive.
With knock-down of RMND1 the results were TNF reporter robust z-score 0.41; inactive.
Against RMND1, the entry reads TNF reporter robust z-score -0.6; inactive.
Silencing of RMND1 came out at: TNF reporter robust z-score -1.14; inactive.
RMND1 gave TNF reporter robust z-score 0.02; inactive.
Silencing of WDR25 came out at: TNF reporter robust z-score -1.5; inactive.
Silencing of WDR25 came out at: TNF reporter robust z-score -1.23; inactive.
Against WDR25 the deposit lists TNF reporter robust z-score -1.17; inactive.
With knock-down of WDR25 the results were TNF reporter robust z-score -1.65; active.
After knock-down of PIMREG, the record shows inactive.
For PIMREG the deposit lists TNF reporter robust z-score -0.68; inactive.
With knock-down of PIMREG the results were TNF reporter robust z-score -0.53; inactive.
Silencing of PIMREG came out at: TNF reporter robust z-score -0.85; inactive.
Knock-down of PIMREG gave: TNF reporter robust z-score -1.15; inactive.
IGSF5 scored inactive.
For IGSF5, the values are TNF reporter robust z-score -0.67; inactive.
Against IGSF5, the entry reads TNF reporter robust z-score -0.8; inactive.
Silencing of IGSF5 came out at: TNF reporter robust z-score -0.42; inactive.
With knock-down of TMEM177 the results were TNF reporter robust z-score -1.42; inactive.
Knock-down of TMEM177 resulted in: TNF reporter robust z-score -1.22; inactive.
Against TMEM177 the deposit lists TNF reporter robust z-score -1.38; inactive.
With knock-down of TMEM177, the record shows TNF reporter robust z-score -0.45; inactive.

Part of the list above, set out differently:
Target gene,TNF reporter robust z-score,call
ACVR2A,0.13,inactive
ACVR2A,-1.03,inactive
ACVR2A,0.6,inactive
SLC2A12,-1.34,inactive
SLC2A12,-0.26,inactive
SLC2A12,-0.61,inactive
